{"source": "patent US20040071653A1", "about": "“Antimicrobial ternary surfactant blend comprising cationic, anionic, and bridging surfactants, and methods of preparing same” (Stepan Company, priority 2000, published 2004)", "assay_type_in_all_cases": "cell-based", "settings_in_all_cases": "triplicate", "key": {"[1]": {"system": "Staphylococcus aureus (ATCC 6538)", "test": "Minimum Inhibitory Concentration test, bacteriostatic responses", "set-up": "key to the marks not given beside the values", "description": "(§1) [table] [table] Add 0.1 ml of inoculum to each 20×150 mm test tube containing 9.0 ml of Nutrient or Sabouraud Dextrose Broth and 1 ml of a aqueous dilution of the test sample. Vortex tube to mix then incubate bacteria inoculated tubes at 36±1° C. for a minimum of 48±1 hour and fungi inoculated tubes at 28° C. for 7-10 days. Following incubation, observe tubes visually for the presence of growth (i.e. turbidity). Perform all testing in triplicate."}, "[2]": {"system": "Escherichia coli (ATCC 11229)", "test": "Minimum Inhibitory Concentration test, bacteriostatic responses", "description": "as §1"}, "[3]": {"system": "Pseudomonas aeruginosa (ATCC 15442)", "test": "Minimum Inhibitory Concentration test, bacteriostatic responses", "description": "as §1"}, "[4]": {"system": "Aspergillus niger (ATCC 16404)", "test": "Minimum Inhibitory Concentration test, fungistatic responses", "set-up": "key to the marks not given beside the values", "description": "as §1"}, "[5]": {"system": "Candida albicans (ATCC 10231)", "test": "Minimum Inhibitory Concentration test, fungistatic responses", "set-up": "key to the marks not given beside the values", "description": "as §1"}}, "note": "For at least one compound, name, drawing or mass did not settle the structure.", "data": [{"smiles": "CCCCCCCCCCCC[N+](C)(C)[O-]", "note": "[AMMONYX-LO, Lauramine oxide]", "values": [{"measurement": "Bacteriostatic response S. aureus", "setting": "[1]; 1 ppm active", "value": "+++"}, {"measurement": "Bacteriostatic response S. aureus", "setting": "[1]; 10 ppm active", "value": "+++"}, {"measurement": "Bacteriostatic response E. coli", "setting": "[2]; 1 ppm active", "value": "+++"}, {"measurement": "Bacteriostatic response E. coli", "setting": "[2]; 10 ppm active", "value": "+++"}, {"measurement": "Bacteriostatic response E. coli", "setting": "[2]; 100 ppm active", "value": "±±±"}, {"measurement": "Bacteriostatic response P. aeruginosa", "setting": "[3]; 1 ppm active", "value": "+++"}, {"measurement": "Bacteriostatic response P. aeruginosa", "setting": "[3]; 10 ppm active", "value": "+++"}, {"measurement": "Bacteriostatic response P. aeruginosa", "setting": "[3]; 100 ppm active", "value": "+++"}, {"measurement": "Bacteriostatic response P. aeruginosa", "setting": "[3]; 1000 ppm active", "value": "±±±"}, {"measurement": "Fungistatic response A. niger", "setting": "[4]; 1 ppm active", "value": "+++"}, {"measurement": "Fungistatic response A. niger", "setting": "[4]; 10 ppm active", "value": "+++"}, {"measurement": "Fungistatic response C. albicans", "setting": "[5]; 1 ppm active", "value": "+++"}, {"measurement": "Fungistatic response C. albicans", "setting": "[5]; 10 ppm active", "value": "+++"}]}]}
